According to PubChem BioAssay AID588497 (NMMLSC, 2011):
Out of some 360,000 compounds screened, about 780 (0.22%) were called active. The shares of active, inactive and inconclusive entries below differ from those in the screen. Cut-off read from the data, not from the text of the source: active = inhibition above about 35% (passing the limit was not always enough); inconclusive = no clear call, values can overlap the other calls.

The compounds below were run on Botulinum neurotoxin type F light chain protease (Clostridium botulinum) (assay: BoNT/F light chain protease inhibitors, primary screen, biochemical, flow cytometry, MLPCN library (AID 588497; note: plate controls were buffer without enzyme for full effect and enzyme alone for no effect)). Conditions: Multiplex microsphere protease cleavage assay, at 10 µM, stronger effect = higher value.

| Structure (SMILES) | inhibition |
| --- | --- |
| Cc1ccc(S(=O)(=O)N2CCC(C(=O)NCCCN3CCOCC3)CC2)cc1C | inactive: -4.5% |
| O=C(Cc1ccc(F)cc1)NCCS(=O)(=O)N1CCN(c2ccccc2)CC1 | inconclusive: 80.1% |
| Cc1ccc(/C(O)=C2/C(=O)C(=O)N(c3ccccn3)C2c2ccc([N+](=O)[O-])cc2)cc1 (stereo not given) | inconclusive: -33.6% |
| Cc1[nH]c2ccccc2c1/C=N/Nc1nc2ccccc2[nH]1 | inconclusive: -57.4% |
| Cc1cc(NC(=O)C(C)SCC(=O)Nc2ccccc2N2CCCC2)no1 (stereo not given) | inconclusive: -167% |
| Cc1ccccc1-n1c(SCc2c(C)noc2C)nnc1-c1ccncc1 | inactive: 12.4% |
| CCOc1ccc(N(CC(=O)Nc2ccccc2OC)S(C)(=O)=O)cc1 | inconclusive: 22.4% |
| CCCn1c(SCC(=O)Nc2ccccc2-c2ccccc2)nnc1-c1ccoc1C | inconclusive: 22.5% |
| COCCN(C(=O)c1snc(C(N)=O)c1N)C(C(=O)NC1CCCCC1)c1ccc(F)cc1 (stereo not given) | inconclusive: 27.7% |
| Cn1c2c(c(=O)n(C)c1=O)NC1(N2)C(=O)Nc2ccccc21 (stereo not given) | inconclusive: -32% |
| O=C(Cc1ccc(Br)cc1)NCCCn1ccnc1 | inconclusive: -8.4% |
| Cc1cc(C)cc(NC(=O)NC(C)C2CCCO2)c1 (stereo not given) | inactive: -3.4% |
| COc1ccc(C(=O)c2ccc(Cl)cc2)cc1 | inconclusive: -41.4% |
| COc1cc(OC)cc(C(=O)N[C@H](C(=O)OCC(=O)Nc2cccnc2Cl)C(C)C)c1 | inactive: 2.4% |
| CC1(C)C2CCC(C2)C1(C)N=C1OC(CCl)CS1 (stereo not given) | inconclusive: 23.4% |
| CSc1ncc(Cl)c(C(=O)Nc2ccccc2[N+](=O)[O-])n1 | inconclusive: 6.6% |
| COc1cc(NC(=O)C2CC(=O)NC3=C2C(=O)CC(C)(C)C3)c(OC)cc1Cl (stereo not given) | inconclusive: -23.8% |
| Cc1ccc(OCC(=O)N2N=C(c3ccncc3)CC2(O)C(F)(F)F)cc1C (stereo not given) | inconclusive: -73.4% |
| COc1cc(/C=N/NC(=O)CNS(=O)(=O)c2ccc(C)cc2)cc(OC)c1OC | inconclusive: -41.8% |
| Cc1ccc(Cc2nc3ccccc3[nH]2)cc1 | inconclusive: -21.6% |
| C=CCc1ccc(OCCn2cncn2)c(OC)c1 | inconclusive: -21% |
| CCOC(=O)C(=O)N/N=C/c1ccc(F)cc1 | inconclusive: -46.9% |
| Cc1cccc2sc(NS(C)(=O)=O)nc12 | inactive: 0% |

| Structure (SMILES) | inhibition |
| --- | --- |
| CC(C)CC(NC(=O)C(Cc1ccc(OCc2ccccc2)cc1)NC(=O)OC(C)(C)C)C(N)=O (stereo not given) | inactive: -1.3% |
| Cc1ccc2cc(C#N)c(N3CCN(C(=O)c4ccccc4)CC3)nc2c1 | inconclusive: -19% |
| CN(CC(=O)Nc1ccc(Cl)c(C(F)(F)F)c1)C(=O)C1CC(=O)N(CCc2ccccc2)C1 (stereo not given) | inconclusive: -1.8% |
| C[C@H](O)[C@@H]1C(=O)N2CCc3ccc(N4CCN(C)CC4)cc3[C@@H]2C[C@@H]1N(C)C(=O)c1ccc(C#N)cc1 | inactive: -4.5% |
| COC(=O)c1ccc(NC(=O)CSc2nc3ncccc3[nH]2)cc1 | inconclusive: 15.9% |
| O=[N+]([O-])c1ccc(/C=N/n2c(COc3ccccc3)n[nH]c2=S)cc1 | inactive: -7.2% |
| N#Cc1nc(-c2ccccc2)oc1N1CCC(C(N)=O)CC1 | inconclusive: 6.3% |
| c1cc2c3c(cccc3c1)C(N1CCOCC1)=N2 | inconclusive: -38.6% |
| Cc1cccc(NS(=O)(=O)c2cccc(C(=O)Nc3cccc(C(=O)O)c3)c2)c1 | inconclusive: 8% |
| CC(C)(C)c1ccc(-c2nc(C#N)c(NCCCn3ccnc3)o2)cc1 | inconclusive: -49.6% |
| CCC(CNc1cc(OC)cc2cccnc12)NC1CCCCC1 (stereo not given) | inconclusive: -192% |
| Cc1cc(-c2nnc3n2N=C(c2ccc(F)cc2)CS3)n[nH]1 | inconclusive: -104% |
| CCc1ccc(-n2cc(-c3ccc([N+](=O)[O-])cc3)[nH]c2=S)cc1 | inactive: -8.3% |
| CCCc1nc2ccccc2c(NC(=O)CN(CC)CC)c1CC | inactive: 0% |
| NC(N)=NC(N)=Nc1ccc(O)cc1 | inconclusive: -24.6% |
| O=P(c1ccccc1)(c1ccccc1)c1ccc(O)cc1 | inconclusive: 10.7% |
| Cc1nnc(NC(=O)CCC(=O)NCc2cccs2)s1 | inconclusive: 26.4% |
| CCCCCOc1ccc(/C(C)=N/NC2=NCCN2)cc1 | inconclusive: -26.6% |
| Cc1ccc(S(=O)(=O)NC2CC(C)(C)NC(C)(C)C2)c(C)c1C | inconclusive: 22.1% |
| Cc1ccc(/C=C/C(=O)N(Cc2cccs2)C2CCS(=O)(=O)C2)cc1 (stereo not given) | inconclusive: 40.7% |
| Cc1cc(NC(=O)/C=C\C(=O)O)c([N+](=O)[O-])cc1C | inconclusive: -182% |
| N#Cc1nc(-c2ccc(OCc3ccccc3)cc2)oc1NCc1ccco1 | inactive: -5.5% |
| Cc1ccnc(NC(=O)c2ccc(Cl)c(NC(=O)c3ccccc3C)c2)c1 | inconclusive: -5.2% |

| Structure (SMILES) | inhibition |
| --- | --- |
| CCCC(=O)Nc1ccc(NC(=O)c2cc3ccccc3o2)c(OC)c1 | inconclusive: 8.6% |
| Cc1cc(C)c(S(=O)(=O)NCc2ccccn2)c(C)c1 | inconclusive: 17.7% |
| CCN1CCN(CCC(=O)Nc2cc(C)ccc2C)CC1 | inconclusive: 5.6% |
| Cc1cc(C(=O)N2CCC(C(=O)O)CC2)c(C(F)(F)F)o1 | inconclusive: -16.2% |
| COc1ccc(C2=C(c3ccccc3)OC(OC)c3cc(F)ccc32)cn1 (stereo not given) | inactive: 4% |
| O=C(NC1CCCC1)C(c1cccnc1)N(C(=O)c1csnn1)C1CC1 (stereo not given) | inactive: -14.1% |
| Cc1ccc(C2CC3CCC(C2)N3Cc2ccccc2F)cc1 (stereo not given) | inconclusive: -5% |
| Cc1ccc(C(=O)NCC(=O)OCC(=O)N(CC(C)C)c2c(N)n(Cc3ccccc3)c(=O)[nH]c2=O)cc1 | inactive: 7.3% |
| CCC(=O)Nc1ccc(C(=O)N/N=C/c2ccccc2[N+](=O)[O-])cc1 | inactive: -4.4% |
| Cc1cccc(C(=O)O)c1NC(=O)Cc1cccc2ccccc12 | inconclusive: -4.1% |
| Cc1sc2ncnc(N3CCC(C(=O)Nc4nnc(SCc5ccccc5F)s4)CC3)c2c1C | inconclusive: 10.7% |
| COC(=O)\C(C(C)=O)=C(/C=C/C=C/N(C)C)N(C)C | inconclusive: -32.7% |
| Cc1cc(=O)oc(C)c1C(=O)Nc1ccccc1F | inconclusive: -5.2% |
| N/C(=N\OC(=O)C12CC3CC(CC(C3)C1)C2)c1cccnc1 | inactive: 13.4% |
| Cc1ccc(C(=O)N2CCCC2)cc1S(=O)(=O)Nc1cccc(C)c1C | inactive: -2.9% |
| O=C(Cn1c(=O)c2cccn2c2cccnc21)N1CCN(c2ccc(Cl)cc2)CC1 | inactive: -5.4% |
| CCS(=O)(=O)c1nc(S(=O)(=O)c2ccc(C)cc2)c(N2CCC(O)CC2)s1 | inactive: 0.6% |
| Cc1ccc(CNC(=O)CCc2c(C)nc3c(c(C)nn3-c3ccc(C)cc3)c2C)cc1 | inactive: -3.9% |
| Cc1ccc(-c2csc(NC(=O)Cn3cnc4c3c(=O)n(C)c(=O)n4C)n2)cc1C | inactive: -0.8% |
| COc1ccc([C@H]2C[C@@H](O)[C@H](n3cc(C4CC4)nn3)CN2C(=O)c2cccs2)cc1 | inactive: -1.1% |
| O=C(CN1C(=O)NC2(CCCC2)C1=O)OCc1c(F)cccc1Cl | inactive: 4.1% |
| CN(CC(=O)Nc1ccc(N2CCOCC2)cc1)C(=O)c1ccc(CS(C)(=O)=O)cc1 | inactive: -1.9% |
| O=C(CCN1C(=O)/C(=C/c2ccc3c(c2)OCO3)SC1=S)Nc1cccc(C(=O)O)c1 | inconclusive: -10.8% |

| Structure (SMILES) | inhibition |
| --- | --- |
| O=c1cccccc1NN=C1CCCCC1 | inconclusive: -81% |
| COc1ccccc1CNC(=O)CC(C)c1ccccc1 (stereo not given) | inconclusive: -21.8% |
| CCCc1nc2c(c(=O)c3ccccc3n2C)c(=O)n1-c1cc(C)cc(C)c1 | inconclusive: 17.5% |
| CC(=O)Nc1ccc(S(=O)(=O)NCc2ccc3[nH]c(C)cc3c2)cc1 | inactive: -87.9% |
| O=C(C1=C(O)C(=O)N(c2ncccn2)C1c1ccc(F)cc1)c1ccco1 (stereo not given) | inconclusive: -2% |
| O=c1[nH]c(=S)[nH]c2scc(-c3ccc(Br)cc3)c12 | inconclusive: -36.4% |
| COc1cccc(CNC(=O)COc2cccc3c2OC(C)(C)C3)c1 | inconclusive: -1.7% |
| COc1ccc(C(C(=O)NC(C)(C)C)N(Cc2cccnc2)C(=O)CCC(=O)Nc2cc(C)on2)cc1 (stereo not given) | inactive: -2.6% |
| Fc1ccc(CN2CCCN(C(=S)Nc3ccc(F)cc3)CC2)cc1 | inconclusive: 15% |
| O=C1c2ccccc2NC2(CCCCC2)N1c1ccc(O)cc1 | active: 156% |
| CCOC(=O)C(Cc1c[nH]c2ccccc12)NC(=O)c1ccco1 (stereo not given) | inconclusive: -54.8% |
| Oc1ccc2ccc3[nH]cnc3c2c1 | inconclusive: -4.4% |
| COc1ccc(OC(=O)c2cnc3n(c2=O)CCS3)cc1 | inconclusive: -16.7% |
| COC(=O)c1ccccc1NC(=S)NC(=O)COc1ccccc1 | inactive: 5.2% |
| CC(C)(C)c1ccc(OCCNCc2ccccc2)cc1 | inconclusive: -23% |
| O=C(Cc1csc(N2CCOCC2)n1)N/N=C/c1cccc(O)c1 | inactive: 5.2% |
| COc1ccc(CCNc2c(C=O)c(=O)[nH]c3ccccc23)cc1OC | inconclusive: 2.3% |
| COc1ccc(-c2[nH]ncc2CN2CCN(c3ccc(F)cc3)CC2)cc1 | inconclusive: -3.3% |
| Cc1ccc(C)c(-n2c(-c3ccncc3)n[nH]c2=S)c1 | inconclusive: -113% |
| CCCC(=O)NCCc1cc2cc(C)c(C)cc2[nH]c1=O | inactive: 1.5% |
| COc1ccc(OCc2nn[nH]n2)cc1 | inconclusive: -6.7% |

Fetched by compound from the entries so far, four records:

| Structure (SMILES) | inhibition |
| --- | --- |
| O=C(C1=C(O)C(=O)N(c2ncccn2)C1c1ccc(F)cc1)c1ccco1 (stereo not given) | inconclusive: -2% |
| CCOC(=O)C(Cc1c[nH]c2ccccc12)NC(=O)c1ccco1 (stereo not given) | inconclusive: -54.8% |
| COc1cccc(CNC(=O)COc2cccc3c2OC(C)(C)C3)c1 | inconclusive: -1.7% |
| COc1ccc(C(C(=O)NC(C)(C)C)N(Cc2cccnc2)C(=O)CCC(=O)Nc2cc(C)on2)cc1 (stereo not given) | inactive: -2.6% |

An excerpt of these results, with bars between the fields.
Structure (SMILES) | inhibition
Cc1[nH]c2ccccc2c1/C=N/Nc1nc2ccccc2[nH]1 | inconclusive: -57.4%
Cc1cc(NC(=O)C(C)SCC(=O)Nc2ccccc2N2CCCC2)no1 (stereo not given) | inconclusive: -167%
